Test results taken from the supplement of paper PMC6078165.
Values are relative to the signal before dosing, not to a vehicle control; the signal also falls without drug.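 Labels refer to human fibroblasts, largely primary: uterine (C12385, HUF), lung (H6013), bone (Hs27A), adrenal (HADF), skin (WS1), plus mammary HMF and breast cancer-associated Hs343T. Cancer lines are basal-like or mesenchymal-like triple-negative breast cancer. The paper counts as hits responses shifting over 3x the replicate standard deviation. The tissue of the other fibroblasts is not given here.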

Test system: MDAMB468
Test: relative JC-1 red fluorescence (viability) vs pre-drug, coculture with fibroblast (fraction); higher = more viable cancer cells
Procedure: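 JC-1 labelled TNBC cells cocultured 1:1 (1,500 cells each) with CellTrace Violet stained primary or stromal fibroblasts in 384-well plates in FluoroBrite medium, treated with one of 42 anticancer drugs at 0.1, 1, 10 or 100 uM. JC-1 red fluorescence (mitochondrial integrity in cancer cells only) was read by plate reader every 8 h for 72 h. Values are normalised to each well's pre-drug value. The stock of one drug was tenfold lower, so its dose labels may be too high.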

C[C@]12CC[C@@H]3c4ccc(O)cc4C[C@@H](CCCCCCCCC[S+]([O-])CCCC(F)(F)C(F)(F)F)[C@H]3[C@@H]1CC[C@@H]2O (stereo partly drawn) [Fulvestrant]
relative JC-1 red fluorescence
Conditions	8 h	16 h	24 h	32 h	40 h	48 h	56 h	64 h	72 h
0.1 µM, coculture fibroblast: C12385	0.88141	0.834	0.788	0.72	0.675	0.656	0.6112	0.576	0.557
0.1 µM, coculture fibroblast: H6013	0.882	0.829	0.806	0.8	0.765	0.765	0.738	0.716	0.671
0.1 µM, coculture fibroblast: H6019	0.8347	0.776	0.749	0.699	0.662	0.656	0.602	0.573	0.546
0.1 µM, coculture fibroblast: H6076	0.951	0.927	0.887	0.904	0.84	0.842	0.808	0.789	0.864
0.1 µM, coculture fibroblast: H6231	0.846	0.958	0.868	0.848	0.798	0.768	0.713	0.673	0.655
0.1 µM, coculture fibroblast: HADF	0.9041	0.8704	0.825	0.806	0.75	0.7398	0.7014	0.6875	0.647
0.1 µM, coculture fibroblast: HCFa	0.8663	0.783	0.7627	0.754	0.69	0.681	0.633	0.595	0.537
0.1 µM, coculture fibroblast: HCPF	0.873	0.842	0.841	0.819	0.75	0.713	0.654	0.641	0.623
0.1 µM, coculture fibroblast: HHSteC	0.9142	0.8579	0.82	0.792	0.739	0.743	0.68	0.652	0.602
0.1 µM, coculture fibroblast: HMF	0.8509	0.918	0.851	0.862	0.792	0.786	0.743	0.728	0.7259
0.1 µM, coculture fibroblast: HPFa	0.92889	0.9099	0.83	0.7795	0.725	0.71	0.6335	0.601	0.5238
0.1 µM, coculture fibroblast: HUF	0.8927	0.819	0.741	0.67	0.616	0.588	0.539	0.51	0.487
0.1 µM, coculture fibroblast: Hs5	0.802	0.914	0.939	0.921	0.846	0.811	0.769	0.7293	0.749
0.1 µM, coculture fibroblast: Hs27A	0.855	0.784	0.769	0.772	0.714	0.703	0.672	0.652	0.615
0.1 µM, coculture fibroblast: Hs343T	0.905	0.955	0.883	0.8802	0.8	0.788	0.745	0.743	0.739
0.1 µM, coculture fibroblast: WS1	0.894	0.8303	0.77	0.69	0.641	0.603	0.568	0.535	0.524
1 µM, coculture fibroblast: C12385	0.8735	0.8461	0.8438	0.799	0.757	0.763	0.734	0.728	0.718
1 µM, coculture fibroblast: H6013	0.8572	0.8526	0.818	0.818	0.794	0.8	0.769	0.762	0.712
1 µM, coculture fibroblast: H6019	0.8065	0.8055	0.78524	0.7425	0.7045	0.696	0.656	0.625	0.596
1 µM, coculture fibroblast: H6076	0.89	0.8636	0.867	0.894	0.82	0.829	0.813	0.813	0.875
1 µM, coculture fibroblast: H6231	0.827	0.8602	0.821	0.823	0.762	0.741	0.694	0.677	0.68
1 µM, coculture fibroblast: HADF	0.87	0.862	0.803	0.798	0.758	0.755	0.718	0.712	0.677
1 µM, coculture fibroblast: HCFa	0.849	0.84	0.778	0.753	0.6974	0.6992	0.6471	0.6087	0.555
1 µM, coculture fibroblast: HCPF	0.8271	0.889	0.828	0.827	0.754	0.727	0.683	0.673	0.669
1 µM, coculture fibroblast: HHSteC	0.8719	0.8544	0.81986	0.7911	0.755	0.7532	0.6928	0.6642	0.6294
1 µM, coculture fibroblast: HMF	0.8327	0.903	0.855	0.825	0.771	0.761	0.729	0.713	0.706
1 µM, coculture fibroblast: HPFa	0.9416	0.884	0.848	0.811	0.7951	0.792	0.712	0.683	0.598
1 µM, coculture fibroblast: HUF	0.872	0.812	0.777	0.71	0.669	0.658	0.603	0.587	0.569
1 µM, coculture fibroblast: Hs5	0.9384	0.9011	0.887	0.875	0.807	0.789	0.766	0.736	0.76
1 µM, coculture fibroblast: Hs27A	0.845	0.826	0.751	0.747	0.689	0.676	0.63	0.602	0.564
1 µM, coculture fibroblast: Hs343T	0.867	0.871	0.82	0.797	0.723	0.71	0.681	0.664	0.663
1 µM, coculture fibroblast: WS1	0.8534	0.825	0.793	0.741	0.707	0.685	0.661	0.6443	0.637
